The test deals with RPTOR1-HA (L. major) (UniProt Q4QA34). Briefly: co-IP.

No constants are given. Whether binding was seen depends on the method and setting. In cells and extracts the contact can be indirect. Binding calls can cover weak binding; strength is not graded here.

In the case of “TOR1-Myc (LmxM.36.6320, N-terminally endogenously myc-tagged) (from UniProt E9AU66)”, the binding entry is “binds”.

(Values after publication doi:10.1101/2022.10.20.513059.)
